Assay results published in paper PMC13538393.

Amino acid sequences for entries named in this document (tags omitted).
UniProt Q96RR4: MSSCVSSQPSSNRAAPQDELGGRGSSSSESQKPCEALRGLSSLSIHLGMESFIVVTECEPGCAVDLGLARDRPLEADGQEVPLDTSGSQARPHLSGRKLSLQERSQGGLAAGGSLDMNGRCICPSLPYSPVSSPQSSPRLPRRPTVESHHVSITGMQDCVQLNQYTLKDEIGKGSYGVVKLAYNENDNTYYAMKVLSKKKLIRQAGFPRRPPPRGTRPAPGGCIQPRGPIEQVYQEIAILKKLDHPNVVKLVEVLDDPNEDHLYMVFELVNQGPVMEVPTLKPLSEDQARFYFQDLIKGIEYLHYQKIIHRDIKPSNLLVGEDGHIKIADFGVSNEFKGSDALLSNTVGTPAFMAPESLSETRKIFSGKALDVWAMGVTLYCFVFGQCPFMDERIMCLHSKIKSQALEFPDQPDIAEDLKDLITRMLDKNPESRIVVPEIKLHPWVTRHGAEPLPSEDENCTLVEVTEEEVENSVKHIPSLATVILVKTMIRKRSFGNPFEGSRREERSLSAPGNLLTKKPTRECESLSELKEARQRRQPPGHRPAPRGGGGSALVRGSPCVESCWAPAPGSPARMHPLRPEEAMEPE

B1: 14-3-3 protein theta, P27348 1-245 (protein)
chain: MEKTELIQKAKLAEQAERYDDMATCMKAVTEQGAELSNEERNLLSVAYKNVVGGRRSAWRVISSIEQKTDTSDKKLQLIKDYREKVESELRSICTTVLELLDKYLIANATNPESKVFYLKMKGDYFRYLAEVACGDDRKQTIDNSQGAYQEAFDISKKEMQPTHPIRLGLALNFSVFYYEILNNPELACTLAKTAFDEAIAELDTLNEDSYKDSTLIMQLLRDNLTLWTSDSAGEECDAAEGAEN
B2: DNA replication licensing factor MCM3 (protein, UniProt P25205 1-808)
chain: MAGTVVLDDVELREAQRDYLDFLDDEEDQGIYQSKVRELISDNQYRLIVNVNDLRRKNEKRANRLLNNAFEELVAFQRALKDFVASIDATYAKQYEEFYVGLEGSFGSKHVSPRTLTSCFLSCVVCVEGIVTKCSLVRPKVVRSVHYCPATKKTIERRYSDLTTLVAFPSSSVYPTKDEENNPLETEYGLSVYKDHQTITIQEMPEKAPAGQLPRSVDVILDDDLVDKAKPGDRVQVVGTYRCLPGKKGGYTSGTFRTVLIACNVKQMSKDAQPSFSAEDIAKIKKFSKTRSKDIFDQLAKSLAPSIHGHDYVKKAILCLLLGGVERDLENGSHIRGDINILLIGDPSVAKSQLLRYVLCTAPRAIPTTGRGSSGVGLTAAVTTDQETGERRLEAGAMVLADRGVVCIDEFDKMSDMDRTAIHEVMEQGRVTIAKAGIHARLNARCSVLAAANPVYGRYDQYKTPMENIGLQDSLLSRFDLLFIMLDQMDPEQDREISDHVLRMHRYRAPGEQDGDAMPLGSAVDILATDDPNFSQEDQQDTQIYEKHDNLLHGTKKKKEKMVSAAFMKKYIHVAKIIKPVLTQESATYIAEEYSRLRSQDSMSSDTARTSPVTARTLETLIRLATAHAKARMSKTVDLQDAEEAVELVQYAYFKKVLEKEKKRKKRSEDESETEDEEEKSQEDQEQKRKRRKTRQPDAKDGDSYDPYDFSDTEEEMPQVHTPKTADSQETKESQKVELSESRLKAFKVALLDVFREAHAQSIGMNRLTESINRDSEEPFSSVEIQAALSKMQDDNQVMVSEGIIFLI
B3: DNA replication licensing factor MCM5 (protein, UniProt P33992 1-734)
chain: MSGFDDPGIFYSDSFGGDAQADEGQARKSQLQRRFKEFLRQYRVGTDRTGFTFKYRDELKRHYNLGEYWIEVEMEDLASFDEDLADYLYKQPAEHLQLLEEAAKEVADEVTRPRPSGEEVLQDIQVMLKSDASPSSIRSLKSDMMSHLVKIPGIIIAASAVRAKATRISIQCRSCRNTLTNIAMRPGLEGYALPRKCNTDQAGRPKCPLDPYFIMPDKCKCVDFQTLKLQELPDAVPHGEMPRHMQLYCDRYLCDKVVPGNRVTIMGIYSIKKFGLTTSRGRDRVGVGIRSSYIRVLGIQVDTDGSGRSFAGAVSPQEEEEFRRLAALPNVYEVISKSIAPSIFGGTDMKKAIACLLFGGSRKRLPDGLTRRGDINLLMLGDPGTAKSQLLKFVEKCSPIGVYTSGKGSSAAGLTASVMRDPSSRNFIMEGGAMVLADGGVVCIDEFDKMREDDRVAIHEAMEQQTISIAKAGITTTLNSRCSVLAAANSVFGRWDETKGEDNIDFMPTILSRFDMIFIVKDEHNEERDVMLAKHVITLHVSALTQTQAVEGEIDLAKLKKFIAYCRVKCGPRLSAEAAEKLKNRYIIMRSGARQHERDSDRRSSIPITVRQLEAIVRIAEALSKMKLQPFATEADVEEALRLFQVSTLDAALSGTLSGVEGFTSQEDQEMLSRIEKQLKRRFAIGSQVSEHSIIKDFTKQKYPEHAIHKVLQLMLRRGEIQHRMQRKVLYRLK
B4: DNA replication licensing factor MCM6 (protein, UniProt Q14566 1-821)
chain: MDLAAAAEPGAGSQHLEVRDEVAEKCQKLFLDFLEEFQSSDGEIKYLQLAEELIRPERNTLVVSFVDLEQFNQQLSTTIQEEFYRVYPYLCRALKTFVKDRKEIPLAKDFYVAFQDLPTRHKIRELTSSRIGLLTRISGQVVRTHPVHPELVSGTFLCLDCQTVIRDVEQQFKYTQPNICRNPVCANRRRFLLDTNKSRFVDFQKVRIQETQAELPRGSIPRSLEVILRAEAVESAQAGDKCDFTGTLIVVPDVSKLSTPGARAETNSRVSGVDGYETEGIRGLRALGVRDLSYRLVFLACCVAPTNPRFGGKELRDEEQTAESIKNQMTVKEWEKVFEMSQDKNLYHNLCTSLFPTIHGNDEVKRGVLLMLFGGVPKTTGEGTSLRGDINVCIVGDPSTAKSQFLKHVEEFSPRAVYTSGKASSAAGLTAAVVRDEESHEFVIEAGALMLADNGVCCIDEFDKMDVRDQVAIHEAMEQQTISITKAGVKATLNARTSILAAANPISGHYDRSKSLKQNINLSAPIMSRFDLFFILVDECNEVTDYAIARRIVDLHSRIEESIDRVYSLDDIRRYLLFARQFKPKISKESEDFIVEQYKHLRQRDGSGVTKSSWRITVRQLESMIRLSEAMARMHCCDEVQPKHVKEAFRLLNKSIIRVETPDVNLDQEEEIQMEVDEGAGGINGHADSPAPVNGINGYNEDINQESAPKASLRLGFSEYCRISNLIVLHLRKVEEEEDESALKRSELVNWYLKEIESEIDSEEELINKKRIIEKVIHRLTHYDHVLIELTQAGLKGSTEGSESYEEDPYLVVNPNYLLED
B5: Extended synaptotagmin-2 (protein, UniProt A0FGR8 1-921)
chain: MTANRDAALSSHRHPGCAQRPRTPTFASSSQRRSAFGFDDGNFPGLGERSHAPGSRLGARRRAKTARGLRGHRQRGAGAGLSRPGSARAPSPPRPGGPENPGGVLSVELPGLLAQLARSFALLLPVYALGYLGLSFSWVLLALALLAWCRRSRGLKALRLCRALALLEDEERVVRLGVRACDLPAWVHFPDTERAEWLNKTVKHMWPFICQFIEKLFRETIEPAVRGANTHLSTFSFTKVDVGQQPLRINGVKVYTENVDKRQIILDLQISFVGNCEIDLEIKRYFCRAGVKSIQIHGTMRVILEPLIGDMPLVGALSIFFLRKPLLEINWTGLTNLLDVPGLNGLSDTIILDIISNYLVLPNRITVPLVSEVQIAQLRFPVPKGVLRIHFIEAQDLQGKDTYLKGLVKGKSDPYGIIRVGNQIFQSRVIKENLSPKWNEVYEALVYEHPGQELEIELFDEDPDKDDFLGSLMIDLIEVEKERLLDEWFTLDEVPKGKLHLRLEWLTLMPNASNLDKVLTDIKADKDQANDGLSSALLILYLDSARNLPSGKKISSNPNPVVQMSVGHKAQESKIRYKTNEPVWEENFTFFIHNPKRQDLEVEVRDEQHQCSLGNLKVPLSQLLTSEDMTVSQRFQLSNSGPNSTIKMKIALRVLHLEKRERPPDHQHSAQVKRPSVSKEGRKTSIKSHMSGSPGPGGSNTAPSTPVIGGSDKPGMEEKAQPPEAGPQGLHDLGRSSSSLLASPGHISVKEPTPSIASDISLPIATQELRQRLRQLENGTTLGQSPLGQIQLTIRHSSQRNKLIVVVHACRNLIAFSEDGSDPYVRMYLLPDKRRSGRRKTHVSKKTLNPVFDQSFDFSVSLPEVQRRTLDVAVKNSGGFLSKDKGLLGKVLVALASEELAKGWTQWYDLTEDGTRPQAMT
B6: ATP-dependent 6-phosphofructokinase (protein, UniProt P08237 1-780)
chain: MTHEEHHAAKTLGIGKAIAVLTSGGDAQGMNAAVRAVVRVGIFTGARVFFVHEGYQGLVDGGDHIKEATWESVSMMLQLGGTVIGSARCKDFREREGRLRAAYNLVKRGITNLCVIGGDGSLTGADTFRSEWSDLLSDLQKAGKITDEEATKSSYLNIVGLVGSIDNDFCGTDMTIGTDSALHRIMEIVDAITTTAQSHQRTFVLEVMGRHCGYLALVTSLSCGADWVFIPECPPDDDWEEHLCRRLSETRTRGSRLNIIIVAEGAIDKNGKPITSEDIKNLVVKRLGYDTRVTVLGHVQRGGTPSAFDRILGSRMGVEAVMALLEGTPDTPACVVSLSGNQAVRLPLMECVQVTKDVTKAMDEKKFDEALKLRGRSFMNNWEVYKLLAHVRPPVSKSGSHTVAVMNVGAPAAGMNAAVRSTVRIGLIQGNRVLVVHDGFEGLAKGQIEEAGWSYVGGWTGQGGSKLGTKRTLPKKSFEQISANITKFNIQGLVIIGGFEAYTGGLELMEGRKQFDELCIPFVVIPATVSNNVPGSDFSVGADTALNTICTTCDRIKQSAAGTKRRVFIIETMGGYCGYLATMAGLAAGADAAYIFEEPFTIRDLQANVEHLVQKMKTTVKRGLVLRNEKCNENYTTDFIFNLYSEEGKGIFDSRKNVLGHMQQGGSPTPFDRNFATKMGAKAMNWMSGKIKESYRNGRIFANTPDSGCVLGMRKRALVFQPVAELKDQTDFEHRIPKEQWWLKLRPILKILAKYEIDLDTSDHAHLEHITRKRSGEAAV

Legend:
[1] = target: T1, Checkpoint kinase 1, wild type, N-terminal Strep-HA tag (human), O14757; test: affinity purification with mass spectrometry; N-terminal Strep-HA-tagged bait induced with doxycycline (24 h) in HEK293 cells; cells treated 4 h with 1 µM inhibitor (SGC-CAMKK2-1, SGC-CAMKK2-1N or rabusertib) or 0.01% DMSO; native lysis in HNN buffer (50 mM HEPES pH 8.0, 150 mM NaCl, 50 mM NaF) with 0.5% IGEPAL; StrepTactin Sepharose, biotin elution; interactors scored against EGFP pulldowns (modified D-score > …); details: remark: other sources report otherwise
T1 chain: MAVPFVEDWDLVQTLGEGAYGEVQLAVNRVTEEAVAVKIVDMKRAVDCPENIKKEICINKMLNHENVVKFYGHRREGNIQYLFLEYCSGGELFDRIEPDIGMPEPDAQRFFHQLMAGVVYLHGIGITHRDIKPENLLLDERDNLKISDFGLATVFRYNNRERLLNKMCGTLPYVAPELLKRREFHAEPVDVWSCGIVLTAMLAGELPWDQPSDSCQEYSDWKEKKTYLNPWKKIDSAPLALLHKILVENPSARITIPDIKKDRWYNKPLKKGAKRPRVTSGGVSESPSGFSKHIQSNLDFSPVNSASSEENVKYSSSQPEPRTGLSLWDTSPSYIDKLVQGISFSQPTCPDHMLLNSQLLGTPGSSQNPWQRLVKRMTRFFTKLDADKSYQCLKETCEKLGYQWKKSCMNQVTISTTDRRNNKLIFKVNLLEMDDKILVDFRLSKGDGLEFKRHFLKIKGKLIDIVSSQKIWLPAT

[2] = target: T2, Checkpoint kinase 1, wild type, N-terminal Strep-HA tag (human) (UniProt O14757); test: affinity purification with mass spectrometry; N-terminal Strep-HA-tagged bait induced with doxycycline (24 h) in HEK293 cells; cells treated 4 h with 1 µM inhibitor (SGC-CAMKK2-1, SGC-CAMKK2-1N or rabusertib) or 0.01% DMSO; native lysis in HNN buffer (50 mM HEPES pH 8.0, 150 mM NaCl, 50 mM NaF) with 0.5% IGEPAL; StrepTactin Sepharose, biotin elution; interactors scored against EGFP pulldowns (modified D-score > 1.425)
T2 sequence: T1 chain

[3] = target: Calcium/calmodulin-dependent protein kinase kinase 2, wild type, N-terminal Strep-HA tag (human) (UniProt Q96RR4); test: as above

Binder | binding [2] | binding [3] | further results
B1 |  |  | binding [1]: binds
B2 | binds |  | 
B3 | binds |  | 
B4 | binds |  | 
B5 |  | binds | 
B6 |  | binds | 

Results are given in words; binding and its absence hold for the method and conditions named. In cells and extracts the contact can be indirect. Here binding means that the protein was enriched with, or labelled near, the bait; the list need not be complete. Sequences can lack the tags named with a protein.
